Measurements published in the supplement of paper PMC12889115.
The other results are listed elsewhere or left out. Values are raw readings; no control value is given beside them.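 In the initial screen, polymyxin B was used at a concentration that permeabilizes Salmonella's outer membrane but not its inner membrane. Maximum growth was set by DMSO wells with or without polymyxin B. Since plates varied, data were ranked per plate, and compounds giving the lowest OD600 advanced as hits.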

Test system: Salmonella enterica serovar Typhimurium SL1344
Test: bacterial growth OD600 after 18 h with compound and polymyxin B; higher = more bacterial growth (less inhibition)
Conditions: 50 µM, Mueller-Hinton broth

| SMILES | bacterial growth OD600 (polymyxin B 1 µg/mL) | bacterial growth OD600 (polymyxin B 0.75 µg/mL) |
| --- | --- | --- |
| CCN(CC1CCN(CCc2ccccc2C)CC1)C(=O)c1cc(C)nc(C)n1 | 1.27 |  |
| CC(C)CCN1CC[C@@H](N2CCN(CCc3ccccc3)CC2)[C@H](O)C1 |  | 0.896 |
| COc1ccc(F)c(CN2CCCC3(CCN(C(=O)C(C)C)C3)C2=O)c1 (stereo not drawn) | 0.877 |  |
| Cc1nc(N2CCC(C(=O)NC(C)Cc3ccsc3)CC2)nc2cc(S(C)(=O)=O)ccc12 (stereo not drawn) |  | 0.827 |
| O=C(C1CCCN(C2CCN(C3Cc4ccccc4C3)CC2)C1)N1CCCC1 (stereo not drawn) | 0.905 |  |
| Cc1ccccc1CCC1CCCN(C(=O)CCn2cncn2)C1 (stereo not drawn) |  | 0.847 |
| O=C(CCC1CCN(C(=O)CCc2cnccn2)CC1)Nc1ccc(F)c(Cl)c1 | 0.909 |  |
| CO[C@H]1[C@H](NC(=O)c2ccncc2)c2ccccc2C12CCN(C(=O)C1(C)CCCCC1)CC2 |  | 0.534 |

Looked up above.
Value for COc1ccc(F)c(CN2CCCC3(CCN(C(=O)C(C)C)C3)C2=O)c1 (stereo not drawn) under bacterial growth OD600 (polymyxin B 1 µg/mL): 0.877
Value for Cc1ccccc1CCC1CCCN(C(=O)CCn2cncn2)C1 (stereo not drawn) under bacterial growth OD600 (polymyxin B 0.75 µg/mL): 0.847
